Results on eleven targets are retold here after the supplement of paper PMC12819154, “High-throughput peptide-centric local stability assay extends protein–ligand identification to membrane proteins, tissues and bacteria” (Nature Structural & Molecular Biology, 2025).

The chains behind the UniProt entries cited, without tags or fusion partners. Where a name states a change or a piece, a line headed by the entry shows the natural chain unless it says otherwise.
UniProt Q91WP0: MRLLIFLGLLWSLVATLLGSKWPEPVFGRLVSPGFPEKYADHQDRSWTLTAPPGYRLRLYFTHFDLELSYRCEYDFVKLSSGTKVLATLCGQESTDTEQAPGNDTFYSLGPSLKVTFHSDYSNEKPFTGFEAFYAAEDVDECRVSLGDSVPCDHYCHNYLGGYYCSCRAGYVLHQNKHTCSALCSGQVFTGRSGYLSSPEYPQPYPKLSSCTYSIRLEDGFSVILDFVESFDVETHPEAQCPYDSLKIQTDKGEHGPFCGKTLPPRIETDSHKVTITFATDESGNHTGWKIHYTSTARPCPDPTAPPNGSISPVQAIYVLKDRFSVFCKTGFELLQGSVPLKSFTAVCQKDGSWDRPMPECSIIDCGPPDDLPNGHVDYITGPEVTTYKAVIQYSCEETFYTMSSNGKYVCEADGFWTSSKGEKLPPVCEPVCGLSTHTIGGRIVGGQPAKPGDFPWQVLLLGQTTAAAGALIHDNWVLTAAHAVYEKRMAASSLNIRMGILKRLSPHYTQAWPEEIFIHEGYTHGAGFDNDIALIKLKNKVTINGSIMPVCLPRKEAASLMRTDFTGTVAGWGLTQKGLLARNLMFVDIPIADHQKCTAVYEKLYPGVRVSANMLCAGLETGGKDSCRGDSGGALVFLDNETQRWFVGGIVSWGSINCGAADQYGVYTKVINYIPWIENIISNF
UniProt Q91WM6: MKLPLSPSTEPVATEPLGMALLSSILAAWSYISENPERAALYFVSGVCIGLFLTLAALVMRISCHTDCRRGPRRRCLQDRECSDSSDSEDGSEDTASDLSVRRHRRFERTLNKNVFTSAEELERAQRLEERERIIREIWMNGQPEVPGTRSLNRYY
UniProt Q91WD4: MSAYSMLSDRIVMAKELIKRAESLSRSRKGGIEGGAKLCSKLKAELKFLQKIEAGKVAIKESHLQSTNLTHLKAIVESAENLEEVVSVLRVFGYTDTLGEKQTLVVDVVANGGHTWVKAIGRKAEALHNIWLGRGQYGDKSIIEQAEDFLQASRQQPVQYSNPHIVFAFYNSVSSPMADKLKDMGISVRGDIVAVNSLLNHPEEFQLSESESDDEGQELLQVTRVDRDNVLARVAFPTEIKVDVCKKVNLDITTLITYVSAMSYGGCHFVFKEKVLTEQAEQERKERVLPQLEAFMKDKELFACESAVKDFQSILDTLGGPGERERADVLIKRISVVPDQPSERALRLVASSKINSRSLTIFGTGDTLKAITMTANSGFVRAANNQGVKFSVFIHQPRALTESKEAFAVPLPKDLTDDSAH
UniProt Q91WZ8: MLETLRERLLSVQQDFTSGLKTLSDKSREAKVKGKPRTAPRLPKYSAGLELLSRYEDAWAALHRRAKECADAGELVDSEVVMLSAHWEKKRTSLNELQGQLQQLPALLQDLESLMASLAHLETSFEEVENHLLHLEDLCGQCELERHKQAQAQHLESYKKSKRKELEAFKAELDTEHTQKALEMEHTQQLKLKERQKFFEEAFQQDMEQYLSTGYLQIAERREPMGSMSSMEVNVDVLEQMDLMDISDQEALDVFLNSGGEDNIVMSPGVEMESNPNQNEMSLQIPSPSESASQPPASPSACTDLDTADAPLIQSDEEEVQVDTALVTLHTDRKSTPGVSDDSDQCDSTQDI
UniProt Q91VS7: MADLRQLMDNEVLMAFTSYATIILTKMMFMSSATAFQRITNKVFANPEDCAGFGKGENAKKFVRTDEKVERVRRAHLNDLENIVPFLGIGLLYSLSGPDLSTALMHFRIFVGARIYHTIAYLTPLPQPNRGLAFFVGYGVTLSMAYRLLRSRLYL
UniProt Q91V16: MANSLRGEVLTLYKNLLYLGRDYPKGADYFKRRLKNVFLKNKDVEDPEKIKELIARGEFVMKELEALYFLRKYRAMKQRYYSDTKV
UniProt Q91WR3: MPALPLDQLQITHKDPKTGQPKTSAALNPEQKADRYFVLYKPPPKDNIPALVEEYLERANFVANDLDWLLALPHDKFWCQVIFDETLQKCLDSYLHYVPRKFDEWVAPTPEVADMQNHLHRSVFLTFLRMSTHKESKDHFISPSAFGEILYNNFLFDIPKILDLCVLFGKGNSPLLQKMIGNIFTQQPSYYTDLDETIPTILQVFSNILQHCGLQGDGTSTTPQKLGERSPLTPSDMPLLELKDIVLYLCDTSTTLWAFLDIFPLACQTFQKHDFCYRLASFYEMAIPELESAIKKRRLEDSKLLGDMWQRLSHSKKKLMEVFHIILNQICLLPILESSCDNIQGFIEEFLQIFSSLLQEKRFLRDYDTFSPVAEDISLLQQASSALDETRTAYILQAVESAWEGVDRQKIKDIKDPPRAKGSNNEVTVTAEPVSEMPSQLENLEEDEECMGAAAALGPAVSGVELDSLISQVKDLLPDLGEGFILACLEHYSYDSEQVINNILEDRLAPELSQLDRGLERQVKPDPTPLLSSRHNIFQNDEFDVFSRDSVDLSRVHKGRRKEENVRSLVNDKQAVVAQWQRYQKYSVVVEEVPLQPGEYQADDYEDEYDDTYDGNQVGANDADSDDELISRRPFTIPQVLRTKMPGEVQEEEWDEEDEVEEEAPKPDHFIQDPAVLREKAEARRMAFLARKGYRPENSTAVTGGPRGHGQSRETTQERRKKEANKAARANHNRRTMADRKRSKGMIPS
UniProt Q91YE5: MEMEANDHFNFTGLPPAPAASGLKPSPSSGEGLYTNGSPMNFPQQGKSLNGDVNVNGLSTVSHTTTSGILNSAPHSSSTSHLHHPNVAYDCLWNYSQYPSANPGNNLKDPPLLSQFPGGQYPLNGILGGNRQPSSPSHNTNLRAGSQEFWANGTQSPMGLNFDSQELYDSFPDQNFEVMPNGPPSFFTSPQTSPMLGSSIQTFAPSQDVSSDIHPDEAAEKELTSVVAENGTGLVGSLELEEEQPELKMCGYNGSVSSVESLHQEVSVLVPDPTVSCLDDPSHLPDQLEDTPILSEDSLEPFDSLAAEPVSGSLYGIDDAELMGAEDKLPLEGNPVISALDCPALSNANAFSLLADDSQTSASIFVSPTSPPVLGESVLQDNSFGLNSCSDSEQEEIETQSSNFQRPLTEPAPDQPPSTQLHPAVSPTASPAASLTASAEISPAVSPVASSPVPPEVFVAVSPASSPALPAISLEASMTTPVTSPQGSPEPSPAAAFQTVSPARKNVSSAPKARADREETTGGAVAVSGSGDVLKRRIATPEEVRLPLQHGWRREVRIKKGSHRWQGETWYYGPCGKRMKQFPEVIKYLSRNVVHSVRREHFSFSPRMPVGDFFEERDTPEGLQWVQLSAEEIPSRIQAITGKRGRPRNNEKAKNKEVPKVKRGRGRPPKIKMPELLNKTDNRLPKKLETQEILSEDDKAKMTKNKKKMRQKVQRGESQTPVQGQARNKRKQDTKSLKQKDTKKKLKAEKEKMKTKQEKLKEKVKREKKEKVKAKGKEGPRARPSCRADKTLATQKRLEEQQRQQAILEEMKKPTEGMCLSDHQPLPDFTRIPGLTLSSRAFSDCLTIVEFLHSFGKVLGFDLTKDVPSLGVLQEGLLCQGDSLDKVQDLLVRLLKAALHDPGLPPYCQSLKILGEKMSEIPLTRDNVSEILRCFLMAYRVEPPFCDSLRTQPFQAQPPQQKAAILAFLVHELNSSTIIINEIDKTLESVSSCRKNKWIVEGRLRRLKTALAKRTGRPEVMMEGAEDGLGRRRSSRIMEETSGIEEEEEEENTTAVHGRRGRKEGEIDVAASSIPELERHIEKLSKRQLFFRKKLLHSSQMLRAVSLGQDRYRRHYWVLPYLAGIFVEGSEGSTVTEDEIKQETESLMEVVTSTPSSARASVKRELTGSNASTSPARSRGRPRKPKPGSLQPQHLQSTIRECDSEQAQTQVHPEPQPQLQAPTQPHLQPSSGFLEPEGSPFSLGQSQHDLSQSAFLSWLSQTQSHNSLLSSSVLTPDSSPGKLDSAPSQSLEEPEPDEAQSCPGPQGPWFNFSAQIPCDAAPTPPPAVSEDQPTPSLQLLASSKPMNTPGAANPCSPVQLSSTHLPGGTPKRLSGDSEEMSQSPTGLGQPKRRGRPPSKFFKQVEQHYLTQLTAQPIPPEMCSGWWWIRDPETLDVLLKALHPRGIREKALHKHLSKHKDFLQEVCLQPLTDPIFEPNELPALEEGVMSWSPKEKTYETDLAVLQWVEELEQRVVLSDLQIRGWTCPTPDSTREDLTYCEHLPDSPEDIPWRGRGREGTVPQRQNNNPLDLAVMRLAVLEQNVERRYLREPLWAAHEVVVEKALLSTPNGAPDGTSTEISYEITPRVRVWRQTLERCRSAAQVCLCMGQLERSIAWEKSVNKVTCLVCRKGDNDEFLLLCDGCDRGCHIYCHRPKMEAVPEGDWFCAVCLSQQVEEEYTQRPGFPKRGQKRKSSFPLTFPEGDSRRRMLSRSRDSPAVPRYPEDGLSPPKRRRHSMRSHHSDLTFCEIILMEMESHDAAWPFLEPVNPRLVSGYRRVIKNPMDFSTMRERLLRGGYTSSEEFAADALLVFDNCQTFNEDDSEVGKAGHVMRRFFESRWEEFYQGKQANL
UniProt Q8VI36, whole entry: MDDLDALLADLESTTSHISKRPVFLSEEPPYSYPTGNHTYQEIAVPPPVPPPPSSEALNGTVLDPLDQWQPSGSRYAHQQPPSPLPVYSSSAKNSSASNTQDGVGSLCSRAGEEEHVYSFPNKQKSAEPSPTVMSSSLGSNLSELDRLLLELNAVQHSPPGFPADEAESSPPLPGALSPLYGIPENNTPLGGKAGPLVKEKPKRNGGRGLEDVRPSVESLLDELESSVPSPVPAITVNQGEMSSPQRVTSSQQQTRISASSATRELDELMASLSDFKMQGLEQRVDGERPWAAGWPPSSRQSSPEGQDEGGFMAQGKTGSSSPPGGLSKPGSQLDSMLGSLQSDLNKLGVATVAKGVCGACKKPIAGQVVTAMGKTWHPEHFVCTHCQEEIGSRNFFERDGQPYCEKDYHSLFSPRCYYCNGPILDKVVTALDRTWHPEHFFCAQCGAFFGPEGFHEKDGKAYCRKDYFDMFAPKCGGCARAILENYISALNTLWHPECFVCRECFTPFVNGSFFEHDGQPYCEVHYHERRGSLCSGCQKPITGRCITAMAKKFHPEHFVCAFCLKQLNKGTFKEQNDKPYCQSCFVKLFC
UniProt Q91WU2: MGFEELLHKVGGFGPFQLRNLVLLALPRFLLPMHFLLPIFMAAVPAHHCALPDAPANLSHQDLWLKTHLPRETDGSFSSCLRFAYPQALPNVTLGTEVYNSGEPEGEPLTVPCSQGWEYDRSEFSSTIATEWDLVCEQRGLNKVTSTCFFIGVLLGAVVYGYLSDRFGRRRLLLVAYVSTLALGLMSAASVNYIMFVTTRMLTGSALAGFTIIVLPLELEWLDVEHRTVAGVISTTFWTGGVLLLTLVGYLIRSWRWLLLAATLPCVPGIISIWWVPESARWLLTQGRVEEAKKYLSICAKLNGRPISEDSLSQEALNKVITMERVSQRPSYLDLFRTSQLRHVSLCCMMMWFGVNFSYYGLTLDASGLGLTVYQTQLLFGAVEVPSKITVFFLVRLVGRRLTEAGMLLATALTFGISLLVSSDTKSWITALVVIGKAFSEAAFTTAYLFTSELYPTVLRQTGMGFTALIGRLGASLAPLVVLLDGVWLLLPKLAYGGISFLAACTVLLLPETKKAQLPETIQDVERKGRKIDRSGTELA

The other results are listed elsewhere or left out. Most values lie at the level of the controls, where differences are scatter.

Compound in this test: CN[C@@H]1C[C@H]2O[C@@](C)([C@@H]1OC)n1c3ccccc3c3c4c(c5c6ccccc6n2c5c31)C(=O)NC4 [staurosporine]
The test is described as follows: log2 fold change of tryptic peptide abundance, ligand vs vehicle (limited proteolysis) (log2 ratio); higher = more trypsin-susceptible (destabilized). Particulars: ligand concentration: 20 uM; sample: mouse liver crude lysate; replicate design: treated separately.
With “UniProt Q91ZU6 (peptide sequence: ATDPPSLQSHIPVLDKGR, peptide start residue: 6923)”, the log2 fold change stood at 0.537.
As to “UniProt Q91WP0 (peptide sequence: LSSCTYSIR, peptide start residue: 208)”, the log2 fold change is -0.266.
The result for “UniProt Q91WM6 (peptide sequence: NVFTSAEELER, peptide start residue: 114)” reads -0.175.
With “UniProt Q91WD4 (peptide sequence: VDRDNVLAR, peptide start residue: 225)”, the log2 fold change stood at 0.429.
For “UniProt Q91WZ8 (peptide sequence: QAQAQHLESYKK, peptide start residue: 149)”, the log2 fold change is 0.224.
As for “UniProt Q91VS7 (peptide sequence: ITNKVFANPEDCAGFGKGENAK, peptide start residue: 39)”, the log2 fold change was -1.28.
In the case of “UniProt Q91V16 (peptide sequence: LKNVFLK, peptide start residue: 34)” it was 0.069; in that of “UniProt Q91WR3 (peptide sequence: GYRPENSTAVTGGPR, peptide start residue: 693)”, -0.303; in that of “UniProt Q91YE5 (peptide sequence: KPKPGSLQPQHLQSTIR, peptide start residue: 1184)”, 0.445.
In the case of “UniProt Q8VI36 (peptide sequence: AGEEEHVYSFPNK, peptide start residue: 111)” it was -0.116; in that of “UniProt Q91WU2 (peptide sequence: GFEELLHK, peptide start residue: 2)”, 0.389.
